Source: PubChem BioAssay AID624297 (National Center for Advancing Translational Sciences (NCATS), 2012)
About 6,200 (1.8%) of roughly 340,000 compounds were called active. Inconclusive results, whose numbers are uncertain, are shown with a selection of clear calls. The call rests on the fitted dose curve; in most records, active means well fitted activation curve with a large enough effect; inconclusive means small, poorly fitted or top-dose-only effect; inactive means no such curve, though single readings can be large or run the other way. Potencies of inconclusive entries are doubtful fits and often do not repeat.

experiment: A quantitative high throughput screen for small molecules that induce DNA re-replication in SW480 colon adenocarcinoma cells.; further: nearly all actives have a fitted effect of over 55% in size; on re-replication activation: % of control where 0% means no effect; settings: Hoechst DNA content imaging, 48 h; re-replication activation: at 46.1 µM (top of the series) unless noted
Method in brief: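 Readout is total intensity of Hoechst-stained nuclei, excited at 405 nm and collected at 500-530 nm. Compound treatment lasted 48 hr at 37 C in 5% CO2 before staining.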
Potency means the concentration at half of the fitted maximal effect.

Structure (SMILES)	Potency	re-replication activation
Cc1ccc(NC(=S)NCCO)c(C)c1	inactive	
CCOC(=O)C1=CN(Cc2ccco2)S(=O)(=O)N(CC)C1c1ccc(F)c(Cl)c1 (stereo not drawn)	inconclusive: 6.51 µM [activator, single point]	
COc1cccc(C(=O)N2CCN(Cc3cn[nH]c3-c3ccc(F)cc3F)CC2)c1	inconclusive: 2.91 µM [activator, full curve, poor fit]	
O=C(CCSc1ccc(F)cc1)NNC(=O)c1ccccc1Cl	inconclusive: 29.1 µM [activator, single point]	
O=S(=O)(c1cccc(C(F)(F)F)c1)N1CCN(CC(O)COCc2ccccc2)CC1 (stereo not drawn)	inactive	
Nc1ccccc1/C=C/c1ccccc1N	inconclusive: 18.4 µM [activator, single point]	
CCCCCc1ccc(CC(=O)Nn2c(C)nc3ccccc3c2=O)cc1	inactive	
COc1ccccc1NCCC(=O)OCC(=O)Nc1ccc(Cl)cn1	inconclusive: 0.517 µM [activator, single point]	
COC(=O)Cc1csc(Nc2ccc(Cl)cc2)n1	inconclusive: 32.6 µM [activator, single point]	
CCCCN(C(=O)c1ccc(N2CCCC2=O)cc1)c1c(N)n(CCC)c(=O)[nH]c1=O	inactive	
Cc1ccc(C)c(OCCC(=O)OCC(=O)Nc2ccc(Cl)cn2)c1	active: 18.4 µM	
Cc1csc(=Nc2ccccc2)n1Cc1ccco1	inconclusive: 1.84 µM [activator, partial curve, poor fit]	
O=[N+]([O-])c1ccccc1N/N=C1\CCc2ccccc21	inconclusive: 29.1 µM [activator, single point]	
O=C(CCS(=O)(=O)c1ccccc1)NC1CCCCC1	inconclusive: 29.1 µM [activator, single point]	
Cn1c(Cl)nc2c1c(=O)n(Cc1cccc(Br)c1)c(=O)n2C	inactive	
CCOC(=O)CC1(C)SC(NC(C)=O)=NN1C(C)=O (stereo not drawn)	inconclusive: 3.26 µM [activator, single point]	
O=C(Nc1ccncc1)Nc1ccc(Cl)cc1Cl	inactive	
COc1ccc(C(=O)NC(=S)N(Cc2ccccc2)Cc2ccccc2)cc1	inconclusive: 29.1 µM [activator, single point]	
COc1ccc(NC(=O)c2c(Cl)n(C)c3ccccc23)cc1	inconclusive: 18.4 µM [activator, single point]	
Cc1cccc2c1-c1sc(C(=O)Nc3cccnc3)cc1CO2	inconclusive: 0.461 µM [activator, full curve, poor fit]	
Cc1cccc(N2CCN(C(=O)c3ccc4nc[nH]c4c3)CC2)c1C	inconclusive: 29.1 µM [activator, single point]	
O=C1NC2CCCCC2C(=O)N1OS(=O)(=O)c1ccccc1 (stereo not drawn)	inconclusive: 20.6 µM [activator, single point]	
O=C(Cn1cncn1)N/N=C/c1c2ccccc2cc2ccccc12	inconclusive: 18.4 µM [activator, single point]	
OC1CCCN(CC(O)COc2ccc(-c3ccccc3)cc2)C1 (stereo not drawn)	inactive	
CCOC(=O)c1sc2nc(SC)nc(-c3ccc(Cl)cc3)c2c1N	inconclusive: 2.59 µM [activator, single point]	

Grouped by structure, the entries above with a carbonyl joined to an NH by a bond outside any ring
Structure (SMILES)	Potency	re-replication activation
O=C(CCSc1ccc(F)cc1)NNC(=O)c1ccccc1Cl	inconclusive: 29.1 µM [activator, single point]	
CCCCCc1ccc(CC(=O)Nn2c(C)nc3ccccc3c2=O)cc1	inactive	
COc1ccccc1NCCC(=O)OCC(=O)Nc1ccc(Cl)cn1	inconclusive: 0.517 µM [activator, single point]	
Cc1ccc(C)c(OCCC(=O)OCC(=O)Nc2ccc(Cl)cn2)c1	active: 18.4 µM	
O=C(CCS(=O)(=O)c1ccccc1)NC1CCCCC1	inconclusive: 29.1 µM [activator, single point]	
CCOC(=O)CC1(C)SC(NC(C)=O)=NN1C(C)=O (stereo not drawn)	inconclusive: 3.26 µM [activator, single point]	
O=C(Nc1ccncc1)Nc1ccc(Cl)cc1Cl	inactive	
COc1ccc(C(=O)NC(=S)N(Cc2ccccc2)Cc2ccccc2)cc1	inconclusive: 29.1 µM [activator, single point]	
COc1ccc(NC(=O)c2c(Cl)n(C)c3ccccc23)cc1	inconclusive: 18.4 µM [activator, single point]	
Cc1cccc2c1-c1sc(C(=O)Nc3cccnc3)cc1CO2	inconclusive: 0.461 µM [activator, full curve, poor fit]	
O=C(Cn1cncn1)N/N=C/c1c2ccccc2cc2ccccc12	inconclusive: 18.4 µM [activator, single point]	

Some of the entries so far, as comma-separated lines.
Structure (SMILES),Potency,re-replication activation
OC1CCCN(CC(O)COc2ccc(-c3ccccc3)cc2)C1 (stereo not drawn),inactive,
CCOC(=O)c1sc2nc(SC)nc(-c3ccc(Cl)cc3)c2c1N,"inconclusive: 2.59 µM [activator, single point]",

(listing goes on)

Structure (SMILES)	Potency	re-replication activation
Cc1ccc(S(=O)(=O)N(c2cccc(C(F)(F)F)c2)C2C=CS(=O)(=O)C2)cc1 (stereo not drawn)	inconclusive: 23.1 µM [activator, single point]	
O=C(Nc1ccccc1)OC[C@H](CN1CCCCC1)OC(=O)Nc1ccccc1	inactive	
Cc1cc(C)c(-n2c(SCCS(=O)(=O)c3ccc(F)cc3)n[nH]c2=O)c(C)c1	inconclusive: 18.4 µM [activator, single point]	
CCCCOC(=O)Nc1ccccc1C(=O)N1CCCC1	inconclusive: 23.1 µM [activator, single point]	
Cc1nc2scc(C)n2c(=O)c1S(=O)(=O)N1CCN(c2ccccc2F)CC1	inactive	
Cc1oc(C(=O)O)cc1COc1cccc2ccccc12	inconclusive: 29.1 µM [activator, single point]	
COCCn1c(SCC(=O)Nc2ccc(Cl)c(S(=O)(=O)N(C)C)c2)nc2ccccc21	inactive	
O=C(CCCn1c(=S)[nH]c2ccsc2c1=O)NCCc1ccccc1	inactive	
COc1ccc(NC(=O)CN2C(=O)c3cccc4cccc2c34)cc1OC	inconclusive: 20.6 µM [activator, single point]	
CN1CCC=C(C(=O)N2c3ccccc3Sc3ccc(Cl)cc32)C1	inactive	
COc1ccc(-c2cc(C(=O)N(C)Cc3ccccc3)c3ccccc3n2)cc1	inconclusive: 25.9 µM [activator, partial curve, poor fit]	
Cc1cccc(-n2c(SCC(=O)N(C)C3CCS(=O)(=O)C3)nc3ccccc3c2=O)c1C (stereo not drawn)	inconclusive: 0.651 µM [activator, partial curve, poor fit]	
CC(C)c1ccc(C2(O)C(=O)Nc3cc(Br)ccc32)c(O)c1 (stereo not drawn)	inconclusive: 29.1 µM [activator, single point]	
CN(C)c1nc(Nn2cnnc2)nc(N(C)C)n1	inconclusive: 20.6 µM [activator, single point]	
COc1cccc(CN2CCN(CCCc3ccccc3)C(CCO)C2)c1O (stereo not drawn)	inconclusive: 23.1 µM [activator, single point]	
COc1ccc(C2=NN(C(=O)CSc3nnc(-c4ccccc4F)o3)C(c3ccco3)C2)cc1 (stereo not drawn)	inactive	
Nc1nc(Nc2cccc(Cl)c2)nc(NCCO)c1[N+](=O)[O-]	inconclusive: 6.51 µM [activator, single point]	
COc1ccc(/C=N/NC(=O)C2C3CCCCC32C)cc1OC (stereo not drawn)	inconclusive: 0.116 µM [activator, full curve, poor fit]	
Cc1ccc(C)c(Cn2c(=O)n(CCCC(=O)NCc3ccco3)c(=O)c3sccc32)c1	inconclusive: 25.9 µM [activator, single point]	
CCn1c(=O)n(CC)c2cc(N3CCCC3)c(NC(=O)c3c(F)cccc3F)cc21	inactive	
CC(C)CCn1nc(C(=O)Nc2nc3c(s2)CCCC3)c2ccccc2c1=O	inconclusive: 29.1 µM [activator, single point]	
S=C(NCc1ccncc1)Nc1cccc(Cl)c1	inactive	
Cc1ccc(NC(=O)c2cccc(OCc3c(C)noc3C)c2)cc1S(=O)(=O)Nc1ccccc1Cl	inconclusive: 14.6 µM [activator, partial curve, poor fit]	
Cc1cccn2c(=O)c(/C=C(\C#N)C(=O)NC3CCS(=O)(=O)C3)c(Oc3ccc(F)cc3)nc12 (stereo not drawn)	inconclusive: 3.26 µM [activator, full curve]	
CCOc1ccc(NC(=O)CN2C(=O)COc3ccccc32)cc1		inconclusive: 8.29% [activator]

Structure (SMILES)	Potency	re-replication activation
COc1ccc(CC(=O)NNC(=O)CCc2ccccc2)cc1OC	inactive	
Cc1ccc([N+](=O)[O-])cc1S(=O)(=O)NCCc1cn2ccccc2n1	inconclusive: 29.1 µM [activator, single point]	
Cn1c(C=O)c(-c2ccc3cc[nH]c3c2)c2ccccc21	inconclusive: 29.1 µM [activator, single point]	
O=C/C(=C\Nc1ccccn1)c1nc2ccccc2o1	inconclusive: 29.1 µM [activator, single point]	
CCNC(=S)N1CCN=C1Nc1nc(C)cc(C)n1	inactive	
C=CCNC(=S)NNC(=O)c1ccccc1	inactive	
N#Cc1c(NC(=O)CSc2ccccn2)oc(-c2ccccc2)c1-c1ccccc1	inactive	
CC1(C)Cc2cccc(C(=O)NCc3ccco3)c2O1	inconclusive: 18.4 µM [activator, single point]	
CCCn1nc(NC(=O)c2cccs2)c2cc3cccc(C)c3nc21	inconclusive: 29.1 µM [activator, single point]	
C=C(C)CCC(C)N1CCC(n2nccc2NC(=O)CCOc2ccccc2)CC1 (stereo not drawn)	inconclusive: 23.1 µM [activator, single point]	
O=C(CSc1nccc(=O)[nH]1)Nc1ccc(N2CCOCC2)cc1	inactive	
COc1cccc(C2C=C(c3ccc(OC)cc3OC)Nc3nnnn32)c1 (stereo not drawn)	inconclusive: 22.4 µM [activator, single point]	
COc1cc(NS(=O)(=O)c2ccc(NC(=O)/C=C/c3cccc([N+](=O)[O-])c3)cc2)ncn1	inactive	
Cc1ccc(OCCCSc2n[nH]c(N)n2)cc1	inconclusive: 6.51 µM [activator, single point]	
O=C1/C(=C\c2ccc(Br)o2)SC(=Nc2ccccc2)N1c1ccccc1	inactive	
CC(C)C(NC(=O)c1ccccc1)C(=O)OCC(=O)N1CCCC1 (stereo not drawn)	inactive	
CN(CC(=O)Nc1ccccc1Cl)C(=O)COC(=O)CSc1ccc(F)cc1	inactive	
N=c1c(C(=O)NCc2ccco2)cc2c(=O)n3ccccc3nc2n1CCc1ccccc1	active: 13 µM	
O=C(CSc1nnc(-c2cccs2)n1-c1ccccc1)c1ccc2c(c1)OCCO2	inactive	
CCCCN(Cc1ccco1)S(=O)(=O)c1csc(C(N)=O)c1	inactive	
O=C(c1c(F)c(F)c(F)c(F)c1F)N1CCN(c2cccc(C(F)(F)F)c2)CC1	inconclusive: 18.4 µM [activator, single point]	
CCC(C)NC(=O)C(=O)NC1CCCC1 (stereo not drawn)	inconclusive: 29.1 µM [activator, single point]	
COc1ccc(NC(=O)CSc2nc3ccncc3[nH]2)c(OC)c1	inconclusive: 5.8 µM [activator, full curve, poor fit]	
